# Results from the supplement of paper PMC10849652.
# The chains behind the UniProt entries cited, without tags or fusion partners. Where a name states a change or a piece, a line headed by the entry shows the natural chain unless it says otherwise.
# UniProt O00560: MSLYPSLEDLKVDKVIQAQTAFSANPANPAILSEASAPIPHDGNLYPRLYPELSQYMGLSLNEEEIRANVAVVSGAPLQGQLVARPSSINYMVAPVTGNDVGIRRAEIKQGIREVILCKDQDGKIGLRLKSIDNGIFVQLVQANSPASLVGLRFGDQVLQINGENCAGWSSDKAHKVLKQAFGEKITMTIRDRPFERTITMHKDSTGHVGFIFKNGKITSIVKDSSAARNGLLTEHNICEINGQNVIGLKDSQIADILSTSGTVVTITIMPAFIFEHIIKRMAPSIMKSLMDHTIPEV
# UniProt Q92503: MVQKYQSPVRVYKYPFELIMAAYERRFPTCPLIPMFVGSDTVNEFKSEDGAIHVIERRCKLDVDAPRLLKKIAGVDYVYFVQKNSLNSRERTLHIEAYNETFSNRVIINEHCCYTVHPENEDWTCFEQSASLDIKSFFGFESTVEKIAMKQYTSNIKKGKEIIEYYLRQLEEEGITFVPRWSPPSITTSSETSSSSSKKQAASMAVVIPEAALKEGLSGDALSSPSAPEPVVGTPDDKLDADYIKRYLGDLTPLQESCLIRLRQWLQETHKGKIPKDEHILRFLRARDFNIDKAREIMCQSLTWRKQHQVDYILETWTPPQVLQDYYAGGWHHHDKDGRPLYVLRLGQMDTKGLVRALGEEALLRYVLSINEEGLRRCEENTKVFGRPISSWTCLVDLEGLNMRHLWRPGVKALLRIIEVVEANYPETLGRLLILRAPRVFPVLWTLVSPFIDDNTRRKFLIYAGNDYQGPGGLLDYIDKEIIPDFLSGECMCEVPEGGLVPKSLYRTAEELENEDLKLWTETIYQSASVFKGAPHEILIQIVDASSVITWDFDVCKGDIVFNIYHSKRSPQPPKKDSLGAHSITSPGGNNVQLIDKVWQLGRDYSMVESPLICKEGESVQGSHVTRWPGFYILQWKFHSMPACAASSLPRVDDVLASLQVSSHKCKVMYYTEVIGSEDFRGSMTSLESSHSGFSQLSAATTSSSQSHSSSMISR
# UniProt Q96FQ6: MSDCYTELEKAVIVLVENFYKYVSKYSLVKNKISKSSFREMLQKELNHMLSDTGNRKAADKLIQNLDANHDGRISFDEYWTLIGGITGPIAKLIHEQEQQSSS
# UniProt P26447: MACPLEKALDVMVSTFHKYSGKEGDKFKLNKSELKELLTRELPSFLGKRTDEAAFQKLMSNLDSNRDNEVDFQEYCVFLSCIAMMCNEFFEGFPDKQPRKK
# UniProt Q9NQC3: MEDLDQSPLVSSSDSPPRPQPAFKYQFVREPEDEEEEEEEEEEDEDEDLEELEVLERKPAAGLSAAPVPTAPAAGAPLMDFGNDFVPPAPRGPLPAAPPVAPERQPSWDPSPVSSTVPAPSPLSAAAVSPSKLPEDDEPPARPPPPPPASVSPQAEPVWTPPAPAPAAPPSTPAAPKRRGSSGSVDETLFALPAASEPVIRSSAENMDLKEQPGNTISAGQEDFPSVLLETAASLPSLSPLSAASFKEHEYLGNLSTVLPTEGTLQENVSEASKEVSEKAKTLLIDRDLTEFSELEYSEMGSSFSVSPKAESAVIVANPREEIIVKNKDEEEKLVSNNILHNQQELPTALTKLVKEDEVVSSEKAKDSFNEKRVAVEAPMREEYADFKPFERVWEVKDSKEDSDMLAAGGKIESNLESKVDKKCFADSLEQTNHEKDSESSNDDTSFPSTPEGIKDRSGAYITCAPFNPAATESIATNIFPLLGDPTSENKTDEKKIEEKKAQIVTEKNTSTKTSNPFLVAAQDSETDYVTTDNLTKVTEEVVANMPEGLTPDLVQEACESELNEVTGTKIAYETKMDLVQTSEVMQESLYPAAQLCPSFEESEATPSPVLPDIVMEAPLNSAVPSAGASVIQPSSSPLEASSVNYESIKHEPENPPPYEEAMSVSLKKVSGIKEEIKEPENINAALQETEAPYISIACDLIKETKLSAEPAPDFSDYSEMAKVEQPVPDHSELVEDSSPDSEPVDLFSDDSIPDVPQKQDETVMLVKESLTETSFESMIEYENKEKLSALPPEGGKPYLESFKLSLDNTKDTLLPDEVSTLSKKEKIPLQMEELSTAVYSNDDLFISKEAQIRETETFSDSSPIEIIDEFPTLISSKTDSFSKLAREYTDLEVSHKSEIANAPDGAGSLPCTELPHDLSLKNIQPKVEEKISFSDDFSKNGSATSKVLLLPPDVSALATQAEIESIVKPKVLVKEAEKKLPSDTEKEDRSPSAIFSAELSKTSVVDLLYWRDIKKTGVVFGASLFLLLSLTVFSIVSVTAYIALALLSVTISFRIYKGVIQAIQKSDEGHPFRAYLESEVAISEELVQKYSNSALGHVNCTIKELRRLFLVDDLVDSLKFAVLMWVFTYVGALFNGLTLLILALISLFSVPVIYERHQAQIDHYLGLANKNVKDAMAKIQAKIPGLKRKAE
# UniProt Q6UWP8: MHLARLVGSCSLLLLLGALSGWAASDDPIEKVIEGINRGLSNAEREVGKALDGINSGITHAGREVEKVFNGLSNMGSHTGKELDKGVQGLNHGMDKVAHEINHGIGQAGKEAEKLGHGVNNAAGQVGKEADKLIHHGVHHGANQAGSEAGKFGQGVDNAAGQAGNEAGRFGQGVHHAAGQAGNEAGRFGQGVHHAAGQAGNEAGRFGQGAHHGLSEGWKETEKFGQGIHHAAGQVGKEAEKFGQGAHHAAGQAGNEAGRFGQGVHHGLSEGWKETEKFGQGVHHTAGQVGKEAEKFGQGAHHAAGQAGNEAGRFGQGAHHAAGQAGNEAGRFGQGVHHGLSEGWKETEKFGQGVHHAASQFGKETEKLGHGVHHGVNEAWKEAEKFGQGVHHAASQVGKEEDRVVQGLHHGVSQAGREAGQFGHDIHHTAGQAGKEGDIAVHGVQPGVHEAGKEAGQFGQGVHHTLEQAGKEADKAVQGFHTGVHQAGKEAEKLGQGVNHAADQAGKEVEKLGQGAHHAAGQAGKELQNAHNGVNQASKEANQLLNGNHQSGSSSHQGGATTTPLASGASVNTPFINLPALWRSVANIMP
# UniProt Q8IZE3: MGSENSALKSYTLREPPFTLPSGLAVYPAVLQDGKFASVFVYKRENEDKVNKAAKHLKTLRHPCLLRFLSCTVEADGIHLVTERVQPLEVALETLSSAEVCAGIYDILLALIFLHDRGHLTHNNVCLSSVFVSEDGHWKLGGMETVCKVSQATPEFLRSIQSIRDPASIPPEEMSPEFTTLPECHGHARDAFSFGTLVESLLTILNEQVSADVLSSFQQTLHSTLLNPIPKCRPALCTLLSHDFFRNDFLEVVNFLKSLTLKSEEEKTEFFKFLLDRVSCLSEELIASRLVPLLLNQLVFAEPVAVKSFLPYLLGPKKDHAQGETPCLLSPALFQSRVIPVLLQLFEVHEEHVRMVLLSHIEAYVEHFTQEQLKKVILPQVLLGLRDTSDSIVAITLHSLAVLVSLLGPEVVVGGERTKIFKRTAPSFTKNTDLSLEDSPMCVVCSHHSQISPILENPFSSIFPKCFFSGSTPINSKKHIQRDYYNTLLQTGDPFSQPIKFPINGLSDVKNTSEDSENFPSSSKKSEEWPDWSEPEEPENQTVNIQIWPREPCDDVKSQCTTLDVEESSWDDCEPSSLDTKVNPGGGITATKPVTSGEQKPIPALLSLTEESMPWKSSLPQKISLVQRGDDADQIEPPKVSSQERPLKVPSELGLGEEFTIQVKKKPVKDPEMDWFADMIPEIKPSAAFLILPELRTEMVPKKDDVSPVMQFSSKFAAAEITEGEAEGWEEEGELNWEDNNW
# UniProt Q9HCY8: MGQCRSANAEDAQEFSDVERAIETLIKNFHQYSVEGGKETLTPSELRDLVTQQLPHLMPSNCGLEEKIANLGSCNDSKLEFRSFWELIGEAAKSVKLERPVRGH
# UniProt Q9NPB0: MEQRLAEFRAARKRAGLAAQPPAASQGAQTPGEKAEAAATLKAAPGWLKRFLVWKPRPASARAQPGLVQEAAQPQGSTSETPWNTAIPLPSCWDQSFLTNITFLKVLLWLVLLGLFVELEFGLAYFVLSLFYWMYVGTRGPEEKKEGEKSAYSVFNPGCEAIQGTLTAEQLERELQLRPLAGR
# UniProt O14828: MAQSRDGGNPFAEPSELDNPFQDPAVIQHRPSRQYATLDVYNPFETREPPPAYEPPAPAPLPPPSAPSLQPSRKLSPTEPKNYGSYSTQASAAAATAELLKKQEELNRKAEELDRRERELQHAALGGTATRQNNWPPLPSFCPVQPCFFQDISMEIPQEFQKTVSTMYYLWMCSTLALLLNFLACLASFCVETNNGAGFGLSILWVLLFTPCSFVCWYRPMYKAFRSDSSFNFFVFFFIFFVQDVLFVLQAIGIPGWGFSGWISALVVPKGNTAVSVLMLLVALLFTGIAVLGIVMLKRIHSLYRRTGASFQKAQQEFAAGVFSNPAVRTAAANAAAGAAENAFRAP
# UniProt A6ZKI3: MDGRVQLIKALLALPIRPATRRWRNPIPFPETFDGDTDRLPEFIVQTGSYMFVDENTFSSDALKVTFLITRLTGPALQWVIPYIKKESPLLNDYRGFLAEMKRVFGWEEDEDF
# UniProt P29034: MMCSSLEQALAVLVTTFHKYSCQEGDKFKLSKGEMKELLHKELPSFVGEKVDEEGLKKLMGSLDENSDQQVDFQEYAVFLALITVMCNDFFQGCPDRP
# UniProt O75556: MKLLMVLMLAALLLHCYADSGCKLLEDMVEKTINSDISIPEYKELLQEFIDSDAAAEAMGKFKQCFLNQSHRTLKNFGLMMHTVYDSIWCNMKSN
# UniProt Q7L3V2: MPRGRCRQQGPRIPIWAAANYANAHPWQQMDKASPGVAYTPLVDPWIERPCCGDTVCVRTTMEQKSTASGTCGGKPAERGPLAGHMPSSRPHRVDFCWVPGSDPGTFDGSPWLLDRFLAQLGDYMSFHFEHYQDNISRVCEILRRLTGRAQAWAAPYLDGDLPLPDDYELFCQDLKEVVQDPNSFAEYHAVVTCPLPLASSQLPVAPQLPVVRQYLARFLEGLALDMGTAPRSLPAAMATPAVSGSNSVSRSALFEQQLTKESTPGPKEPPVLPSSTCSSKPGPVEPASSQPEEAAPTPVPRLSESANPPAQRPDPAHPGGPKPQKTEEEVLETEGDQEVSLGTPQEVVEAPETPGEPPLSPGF
# UniProt P23297: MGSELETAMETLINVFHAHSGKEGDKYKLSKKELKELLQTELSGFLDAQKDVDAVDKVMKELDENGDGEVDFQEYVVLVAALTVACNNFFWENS
# UniProt Q9UPU9: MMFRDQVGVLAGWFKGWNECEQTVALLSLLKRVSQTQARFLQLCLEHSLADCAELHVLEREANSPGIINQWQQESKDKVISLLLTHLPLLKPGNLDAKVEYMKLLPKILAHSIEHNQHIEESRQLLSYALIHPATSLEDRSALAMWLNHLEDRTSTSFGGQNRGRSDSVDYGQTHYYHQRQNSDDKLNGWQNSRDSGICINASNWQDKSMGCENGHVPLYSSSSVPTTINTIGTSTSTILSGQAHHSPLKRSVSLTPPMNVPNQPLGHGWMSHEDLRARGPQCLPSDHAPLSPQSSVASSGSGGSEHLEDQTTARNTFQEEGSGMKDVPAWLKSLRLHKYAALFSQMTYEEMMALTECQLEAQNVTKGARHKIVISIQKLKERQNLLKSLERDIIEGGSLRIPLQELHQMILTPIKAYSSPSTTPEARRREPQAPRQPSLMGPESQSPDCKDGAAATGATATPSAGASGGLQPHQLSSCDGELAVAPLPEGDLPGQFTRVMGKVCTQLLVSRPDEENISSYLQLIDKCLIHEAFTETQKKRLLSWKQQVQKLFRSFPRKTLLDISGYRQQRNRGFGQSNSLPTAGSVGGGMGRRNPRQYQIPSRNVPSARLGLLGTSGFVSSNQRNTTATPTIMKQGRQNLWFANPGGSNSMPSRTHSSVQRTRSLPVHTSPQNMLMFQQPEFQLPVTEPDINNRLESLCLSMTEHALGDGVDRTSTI
# UniProt P28702: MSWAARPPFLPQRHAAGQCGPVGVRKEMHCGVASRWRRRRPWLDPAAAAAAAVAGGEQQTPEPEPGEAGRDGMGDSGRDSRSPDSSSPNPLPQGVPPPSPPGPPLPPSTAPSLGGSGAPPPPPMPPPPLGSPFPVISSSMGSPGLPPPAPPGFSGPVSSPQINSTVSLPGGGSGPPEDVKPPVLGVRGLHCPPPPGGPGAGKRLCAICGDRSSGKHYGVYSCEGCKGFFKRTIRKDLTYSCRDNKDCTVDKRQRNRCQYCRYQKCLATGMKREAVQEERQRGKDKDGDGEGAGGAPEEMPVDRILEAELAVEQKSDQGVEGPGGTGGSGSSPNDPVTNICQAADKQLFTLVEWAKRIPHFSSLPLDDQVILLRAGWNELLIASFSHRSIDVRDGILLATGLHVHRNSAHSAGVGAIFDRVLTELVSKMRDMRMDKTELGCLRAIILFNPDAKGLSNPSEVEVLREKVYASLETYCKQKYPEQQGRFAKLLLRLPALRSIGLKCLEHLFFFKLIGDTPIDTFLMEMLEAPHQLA
# This is one part of the list.
# Compound: O=C(CCCCCCNC(=O)c1cnc(N(c2ccccc2)c2ccccc2Cl)nc1)NO [citarinostat]
# Experiment: log2 fold change, soluble protein after heating vs DMSO (PISA); higher = thermal stabilisation; K562 cells, 10 uM, 30 min; active = over 0.2 and 3.5 SD of the protein, either way, in both replicates (recomputed)
# Outline: (§1)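 Values are thermal stability changes relative to control samples and are taken from duplicates. They are stated as log2 fold changes. Before quantification by TMTpro 16plex LC-MS/MS with equalised channel sums, K562 cells at 2×10^6 cells/mL were treated with 10 μM compound for 30 min, heated in aliquots for 3 min across 48°C-58°C, pooled, extracted in PBS with 0.5% NP-40 at 4°C, and centrifuged at 21,000xg for 90 min to give the soluble supernatant.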
row,Target,log2 fold change
1,SDCBP isoform 2 (UniProt O00560),inactive: 0.024
2,SEC14L1 isoform 2 (UniProt Q92503),inactive: -0.214
3,S100A16 (UniProt Q96FQ6),inactive: -0.122
4,S100A4 (UniProt P26447),inactive: 0.039
5,RTN4 isoform 5 (UniProt Q9NQC3),inactive: -0.028
6,SBSN (UniProt Q6UWP8),inactive: -0.288
7,SCYL3 isoform 2 (UniProt Q8IZE3),inactive: -0.047
8,S100A14 (UniProt Q9HCY8),inactive: -0.138
9,SAYSD1 (UniProt Q9NPB0),inactive: 0.08
10,SCAMP3 isoform 2 (UniProt O14828),inactive: 0.064
11,RTL8C (UniProt A6ZKI3),inactive: 0.034
12,S100A2 (UniProt P29034),inactive: 0.067

# Compound: O=C(O)c1ccc2c(c1)nc(Nc1cccc(Cl)c1)c1ccncc12 [silmitasertib]
# Experiment: as above
# Outline: as §1
row,Target,log2 fold change
1,SDCBP isoform 2 (UniProt O00560),inactive: 0.124
2,"SDHB, A0A087WXX8",inactive: -0.204
3,SCRIB isoform 3 (UniProt Q14160),inactive: 0.372
4,SCN4A (UniProt P35499),inactive: 0.039
5,S100A16 (UniProt Q96FQ6),inactive: 0.086
6,SBSN (UniProt Q6UWP8),inactive: 0.226
7,SCYL3 isoform 2 (UniProt Q8IZE3),inactive: 0.021
8,S100A14 (UniProt Q9HCY8),inactive: -0.111
9,SCGB2A1 (UniProt O75556),inactive: 0.548
10,SAYSD1 (UniProt Q9NPB0),inactive: 0.049
11,SCAMP3 isoform 2 (UniProt O14828),inactive: -0.129
12,RTL10 (UniProt Q7L3V2),inactive: -0.156
13,S100A2 (UniProt P29034),inactive: -0.124

# Compound: O=C1NC(=O)C(c2cnc3ccccn23)=C1c1cn2c3c(cc(F)cc13)CN(C(=O)N1CCCCC1)CC2
# Experiment: as above
# Outline: as §1
row,Target,log2 fold change
1,SDCBP isoform 2 (UniProt O00560),inactive: -0.041
2,SEC14L1 isoform 2 (UniProt Q92503),inactive: -0.07
3,SAFB2 (UniProt K7EQU4),inactive: 0.007
4,SCAI isoform 2 (UniProt Q8N9R8),inactive: -0.212
5,SDF2 (UniProt Q99470),inactive: 0.007
6,SAMD4B (UniProt Q5PRF9),inactive: 0.067
7,S100A1 (UniProt P23297),inactive: -0.094
8,S100A16 (UniProt Q96FQ6),inactive: -0.079
9,RTN4 isoform 5 (UniProt Q9NQC3),inactive: -0.117
10,"RTN4, A0A0U1RQR6",inactive: -0.19
11,SBF2 (UniProt Q86WG5),inactive: -0.07
12,SCYL3 isoform 2 (UniProt Q8IZE3),inactive: -0.053
13,SAMD4A (UniProt Q9UPU9),inactive: -0.216
14,SAYSD1 (UniProt Q9NPB0),inactive: 0.047
15,RXRB isoform 3 (UniProt P28702),inactive: -0.208
16,SCAMP3 isoform 2 (UniProt O14828),inactive: 0.01
17,RTL8C (UniProt A6ZKI3),inactive: 0.066
18,RTL10 (UniProt Q7L3V2),inactive: -0.124

# Compound: c1cc(OCCN2CCCCC2)cc(-c2n[nH]c3ccc(-c4nnc[nH]4)cc23)c1
# Experiment: as above
# Outline: as §1
row,Target,log2 fold change
1,SDCBP isoform 2 (UniProt O00560),inactive: 0.097
2,SEC14L1 isoform 2 (UniProt Q92503),inactive: -0.191
3,S100A16 (UniProt Q96FQ6),inactive: 0.51
4,S100A4 (UniProt P26447),inactive: -0.142
5,RTN4 isoform 5 (UniProt Q9NQC3),inactive: 0.005
6,SBSN (UniProt Q6UWP8),inactive: 0.154
7,SCYL3 isoform 2 (UniProt Q8IZE3),inactive: 0.173
8,S100A14 (UniProt Q9HCY8),inactive: 0.585
9,SAYSD1 (UniProt Q9NPB0),inactive: -0.05
10,SCAMP3 isoform 2 (UniProt O14828),inactive: 0.116
11,RTL8C (UniProt A6ZKI3),inactive: -0.076
12,S100A2 (UniProt P29034),inactive: 0.138
